In US9469650B2, “Melampomagnolide B derivatives” (BOARD OF TRUSTEES OF THE UNIVERSITY OF ARKANSAS, priority 2013, dated 2016):
The name of at least one read-out is uncertain.

What was measured:
SNB-19 = assay: panel of 60 human tumor cell lines, growth inhibition (CNS Cancer)
MDA-MB-231/ATCC = assay: panel of 60 human tumor cell lines, growth inhibition (Breast Cancer)
SR = assay: panel of 60 human tumor cell lines, growth inhibition (Leukemia)
SF-539 = assay: panel of 60 human tumor cell lines, growth inhibition (CNS Cancer)
CCRF-CEM = assay: panel of 60 human tumor cell lines, growth inhibition (Leukemia)
PC-3 = assay: panel of 60 human tumor cell lines, growth inhibition (Prostate Cancer)
UO-31 = assay: panel of 60 human tumor cell lines, growth inhibition (Renal Cancer)
SK-MEL-5 = assay: panel of 60 human tumor cell lines, growth inhibition (Melanoma); details: 8K-MEL-5
SF-268 = assay: panel of 60 human tumor cell lines, growth inhibition (CNS Cancer)

Q: What does the source list for `C=C1C(=O)O[C@H]2[C@H]1CC/C(COC(=O)NCCN1CCOCC1)=C\CC[C@@]1(C)O[C@@H]21` [JVM 57, ((1aR,7aS,10aS,10bS,E)-1a-methyl-8-methylene-9-oxo-1a,2,3,6,7,7a,8,9,10a,10b-decahydrooxireno[2′,3′:9,10]-cyclodeca[1,2-b]furan-5-yl)-methyl(2-morpholinoethyl)carbamate]?
A: Percent Growth (SNB-19; Log10 Concentration −4.0): 30%; Percent Growth (SNB-19; Log10 Concentration −5.0): 88%; Percent Growth (SNB-19; Log10 Concentration −6.0): 94%; Percent Growth (SNB-19; Log10 Concentration −7.0): 95%; Percent Growth (SNB-19; Log10 Concentration −8.0): 97%; Percent Growth (MDA-MB-231/ATCC; Log10 Concentration −4.0): −79%; Percent Growth (MDA-MB-231/ATCC; Log10 Concentration −5.0): 70%; Percent Growth (MDA-MB-231/ATCC; Log10 Concentration −6.0): 100%; Percent Growth (MDA-MB-231/ATCC; Log10 Concentration −7.0): 98%; Percent Growth (MDA-MB-231/ATCC; Log10 Concentration −8.0): 105%; Percent Growth (SR; Log10 Concentration −4.0): −32%; Percent Growth (SR; Log10 Concentration −5.0): 21%; Percent Growth (SR; Log10 Concentration −6.0): 87%; Percent Growth (SR; Log10 Concentration −7.0): 101%; Percent Growth (SR; Log10 Concentration −8.0): 91%; Percent Growth (SF-539; Log10 Concentration −4.0): −94%; Percent Growth (SF-539; Log10 Concentration −5.0): 77%; Percent Growth (SF-539; Log10 Concentration −6.0): 96%; Percent Growth (SF-539; Log10 Concentration −7.0): 95%; Percent Growth (SF-539; Log10 Concentration −8.0): 93%; Percent Growth (CCRF-CEM; Log10 Concentration −4.0): −42%; Percent Growth (CCRF-CEM; Log10 Concentration −5.0): 3%; Percent Growth (CCRF-CEM; Log10 Concentration −6.0): 94%; Percent Growth (CCRF-CEM; Log10 Concentration −7.0): 97%; Percent Growth (CCRF-CEM; Log10 Concentration −8.0): 98%; Percent Growth (PC-3; Log10 Concentration −4.0): −59%; Percent Growth (PC-3; Log10 Concentration −5.0): 81%; Percent Growth (PC-3; Log10 Concentration −6.0): 96%; Percent Growth (PC-3; Log10 Concentration −7.0): 95%; Percent Growth (PC-3; Log10 Concentration −8.0): 96%; Percent Growth (UO-31; Log10 Concentration −4.0): −87%; Percent Growth (UO-31; Log10 Concentration −5.0): 54%; Percent Growth (UO-31; Log10 Concentration −6.0): 91%; Percent Growth (UO-31; Log10 Concentration −7.0): 94%; Percent Growth (UO-31; Log10 Concentration −8.0): 91%; Percent Growth (SK-MEL-5; Log10 Concentration −4.0): −99%; Percent Growth (SK-MEL-5; Log10 Concentration −5.0): 67%; Percent Growth (SK-MEL-5; Log10 Concentration −6.0): 91%; Percent Growth (SK-MEL-5; Log10 Concentration −7.0): 95%; Percent Growth (SK-MEL-5; Log10 Concentration −8.0): 91%; Percent Growth (SF-268; Log10 Concentration −4.0): −79%; Percent Growth (SF-268; Log10 Concentration −5.0): 75%; Percent Growth (SF-268; Log10 Concentration −6.0): 102%; Percent Growth (SF-268; Log10 Concentration −7.0): 100%; Percent Growth (SF-268; Log10 Concentration −8.0): 103%

Q: Which “Percent Growth” value (SNB-19; Log10 Concentration −4.0) does the source give for `C=C1C(=O)O[C@H]2[C@H]1CC/C(COC(=O)NCCN1CCCC1)=C\CC[C@@]1(C)O[C@@H]21` [JVM 59, ((1aR,7aS,10aS,10bS,E)-1a-methyl-8-methylene-9-oxo-1a,2,3,6,7,7a,8,9,10a,10b-decahydrooxireno[2′,3′:9,10]cyclodeca[1,2-b]furan-5-yl)methyl-(2-(pyrrolidin-1-yl)ethyl)carbamate] here?
A: 39%

Q: And the “Percent Growth” value (SNB-19; Log10 Concentration −5.0)?
A: 87%

Q: And the “Percent Growth” value (SNB-19; Log10 Concentration −6.0)?
A: 96%

Q: What about the “Percent Growth” value (SNB-19; Log10 Concentration −7.0) of the same compound?
A: 91%

Q: What about the “Percent Growth” value (SNB-19; Log10 Concentration −8.0) of the same compound?
A: 98%

Q: What about the “Percent Growth” value (MDA-MB-231/ATCC; Log10 Concentration −4.0) of the same compound?
A: −85%

Q: And the “Percent Growth” value (MDA-MB-231/ATCC; Log10 Concentration −5.0)?
A: 80%

Q: What about the “Percent Growth” value (MDA-MB-231/ATCC; Log10 Concentration −6.0) of the same compound?
A: 105%

Q: What about the “Percent Growth” value (MDA-MB-231/ATCC; Log10 Concentration −7.0) of the same compound?
A: 104%

Q: And the “Percent Growth” value (MDA-MB-231/ATCC; Log10 Concentration −8.0)?
A: 105%

Q: What about the “Percent Growth” value (SR; Log10 Concentration −4.0) of the same compound?
A: −35%

Q: What about the “Percent Growth” value (SR; Log10 Concentration −5.0) of the same compound?
A: 51%

Q: What about the “Percent Growth” value (SR; Log10 Concentration −6.0) of the same compound?
A: 91%

Q: What about the “Percent Growth” value (SR; Log10 Concentration −7.0) of the same compound?
A: 93%

Q: What about the “Percent Growth” value (SR; Log10 Concentration −8.0) of the same compound?
A: 94%

Q: What about the “Percent Growth” value (SF-539; Log10 Concentration −4.0) of the same compound?
A: −98%

Q: What about the “Percent Growth” value (SF-539; Log10 Concentration −5.0) of the same compound?
A: 81%

Q: What about the “Percent Growth” value (SF-539; Log10 Concentration −6.0) of the same compound?
A: 96%

Q: What about the “Percent Growth” value (SF-539; Log10 Concentration −7.0) of the same compound?
A: 96%

Q: And the “Percent Growth” value (SF-539; Log10 Concentration −8.0)?
A: 97%

Q: And the “Percent Growth” value (CCRF-CEM; Log10 Concentration −4.0)?
A: −61%

Q: And the “Percent Growth” value (CCRF-CEM; Log10 Concentration −5.0)?
A: −4%

Q: What about the “Percent Growth” value (CCRF-CEM; Log10 Concentration −6.0) of the same compound?
A: 85%

Q: What about the “Percent Growth” value (CCRF-CEM; Log10 Concentration −7.0) of the same compound?
A: 97%

Q: What about the “Percent Growth” value (CCRF-CEM; Log10 Concentration −8.0) of the same compound?
A: 96%

Q: What about the “Percent Growth” value (PC-3; Log10 Concentration −4.0) of the same compound?
A: −74%

Q: What about the “Percent Growth” value (PC-3; Log10 Concentration −5.0) of the same compound?
A: 80%

Q: What about the “Percent Growth” value (PC-3; Log10 Concentration −6.0) of the same compound?
A: 91%

Q: What about the “Percent Growth” value (PC-3; Log10 Concentration −7.0) of the same compound?
A: 94%

Q: What about the “Percent Growth” value (PC-3; Log10 Concentration −8.0) of the same compound?
A: 92%

Q: And the “Percent Growth” value (UO-31; Log10 Concentration −4.0)?
A: −66%

Q: And the “Percent Growth” value (UO-31; Log10 Concentration −5.0)?
A: 67%

Q: What about the “Percent Growth” value (UO-31; Log10 Concentration −6.0) of the same compound?
A: 93%

Q: What about the “Percent Growth” value (UO-31; Log10 Concentration −7.0) of the same compound?
A: 88%

Q: And the “Percent Growth” value (UO-31; Log10 Concentration −8.0)?
A: 64%

Q: What about the “Percent Growth” value (SK-MEL-5; Log10 Concentration −4.0) of the same compound?
A: −97%

Q: And the “Percent Growth” value (SK-MEL-5; Log10 Concentration −5.0)?
A: 84%

Q: And the “Percent Growth” value (SK-MEL-5; Log10 Concentration −6.0)?
A: 95%

Q: What about the “Percent Growth” value (SK-MEL-5; Log10 Concentration −7.0) of the same compound?
A: 93%

Q: And the “Percent Growth” value (SK-MEL-5; Log10 Concentration −8.0)?
A: 98%

Q: What about the “Percent Growth” value (SF-268; Log10 Concentration −4.0) of the same compound?
A: −85%

Q: And the “Percent Growth” value (SF-268; Log10 Concentration −5.0)?
A: 77%

Q: What about the “Percent Growth” value (SF-268; Log10 Concentration −6.0) of the same compound?
A: 96%

Q: And the “Percent Growth” value (SF-268; Log10 Concentration −7.0)?
A: 98%

Q: What about the “Percent Growth” value (SF-268; Log10 Concentration −8.0) of the same compound?
A: 95%
